Measured data: PubChem BioAssay AID1259298 (Sanger Institute, 2017)
Assay: 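Kinase knock-downs that cut colorectal cancer cell viability or act with targeted drugs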 (primary screen). Cells: HT55 human colorectal cancer cell line. Reagent: siRNA pool against human genes. Treatment: anchor drug BYL719 1 µM, cetuximab 5 µg/ml or trametinib 10 nM, or DMSO vehicle alone. Detection: 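Mean viability over replicates versus non-targeting pool, a robust z-score without drug, and per-drug synergy scores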. Direction: robust z-score, knock-down alone: higher = more cells remaining; low means essential gene; viability vs control pool, no drug: higher = more viable cells; synergy score with BYL719 and synergy score with cetuximab: higher = stronger synthetic lethality with the drug. Rule for the call: 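a gene counts as essential if its knock-down-alone robust z-score falls under -3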. Calls: active = essential (knock-down alone); inactive = no change alone.
In all, the deposit lists 794 reagents; below is an unselected part. 20 of all reagents (2.5%) were called active. 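Calls rest only on the knock-down-alone score; drug synergy scores played no part in them.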 Entries without a mark were called inactive. Viability is capped at 1. Further read-outs or replicates are left out here. Not given: the amount of reagent, the time to read-out.

| target gene | robust z-score, knock-down alone | viability vs control pool, no drug (fraction) | synergy score with BYL719 | synergy score with cetuximab |
| --- | --- | --- | --- | --- |
| NME6 | -1.24 | 0.858 | -0.174 | 0.0665 |
| PTK2B | 0.58 | 1 | -0.219 | 0.0838 |
| PDK2 | 0.58 | 1 | -0.0609 | -0.0627 |
| PRKAR1A | 0.58 | 1 | -0.13 | 0.0926 |
| HIPK3 | -0.66 | 0.903 | -0.316 | -0.0375 |
| DGKG | 0.58 | 1 | -0.272 | -0.0664 |
| PAK6 | -0.12 | 0.945 | -0.193 | -0.189 |
| NRAS | 0.58 | 1 | -0.272 | -0.199 |
| JAK3 | 0.58 | 1 | -0.242 | -0.111 |
| BMPR1A | -0.246 | 0.935 | -0.0459 | -0.12 |
| CAD | 0.58 | 1 | -0.26 | -0.211 |
| FN3K | -0.0285 | 0.952 | -0.295 | -0.121 |
| CKS2 | 0.58 | 1 | -0.246 | -0.211 |
| DLG1 | 0.58 | 1 | -0.163 | -0.00235 |
| CDK20 | -0.546 | 0.912 | 0.0133 | -0.129 |
| CAMK4 | 0.58 | 1 | -0.127 | -0.0857 |
| CILK1 | 0.58 | 1 | -0.1 | -0.107 |
| TPK1 | 0.58 | 1 | -0.0265 | -0.204 |
| KCNH8 | -0.0793 | 0.948 | -0.0632 | -0.0738 |
| SRP72 | -3.09 (active) | 0.713 | -0.436 | -0.34 |
| DLG2 | 0.529 | 0.996 | -0.275 | -0.00643 |
| WNK1 | 0.58 | 1 | -0.197 | -0.211 |

Copied from above for reference:
| target gene | robust z-score, knock-down alone | viability vs control pool, no drug (fraction) | synergy score with BYL719 | synergy score with cetuximab |
| --- | --- | --- | --- | --- |
| JAK3 | 0.58 | 1 | -0.242 | -0.111 |
| BMPR1A | -0.246 | 0.935 | -0.0459 | -0.12 |
| CAD | 0.58 | 1 | -0.26 | -0.211 |
| FN3K | -0.0285 | 0.952 | -0.295 | -0.121 |
| CKS2 | 0.58 | 1 | -0.246 | -0.211 |

The listing continues.
| target gene | robust z-score, knock-down alone | viability vs control pool, no drug (fraction) | synergy score with BYL719 | synergy score with cetuximab |
| --- | --- | --- | --- | --- |
| DIS3 | 0.58 | 1 | -0.272 | -0.0414 |
| GAK | 0.58 | 1 | -0.161 | 0.00409 |
| PIK3CG | 0.58 | 1 | -0.189 | -0.0415 |
| MAP2K3 | 0.58 | 1 | -0.043 | -0.0811 |
| SIK1 | 0.58 | 1 | -0.106 | -0.0842 |
| DGKK | 0.58 | 1 | -0.144 | -0.153 |
| IRAK4 | -0.781 | 0.894 | -0.261 | -0.295 |
| EFNB3 | 0.58 | 1 | -0.272 | -0.0126 |
| PIK3CD | 0.58 | 1 | -0.272 | -0.0805 |
| PRAG1 | 0.58 | 1 | -0.128 | -0.137 |
| MAP3K2 | -1.82 | 0.812 | -0.171 | -0.00234 |
| RPS6KA2 | -2.42 | 0.766 | -0.0691 | 0.0972 |
